Results on three molecules are retold here after PMC12254266, “Multicolored sequential resonance energy transfer for detection of simultaneous ligand binding at G protein-coupled receptors” (Nature Communications, 2025).

Sequences of proteins named here, by UniProt entry; tags and fusion partners are left off.
UniProt O14842, whole entry: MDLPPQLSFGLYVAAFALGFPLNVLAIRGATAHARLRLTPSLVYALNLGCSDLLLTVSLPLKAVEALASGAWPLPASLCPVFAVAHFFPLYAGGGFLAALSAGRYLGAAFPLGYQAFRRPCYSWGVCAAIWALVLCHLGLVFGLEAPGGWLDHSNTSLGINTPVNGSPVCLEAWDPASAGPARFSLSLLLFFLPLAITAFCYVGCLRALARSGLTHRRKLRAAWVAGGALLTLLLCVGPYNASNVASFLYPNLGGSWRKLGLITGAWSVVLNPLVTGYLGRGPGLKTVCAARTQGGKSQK

Values joined by “and” are separate entries in the source; they are usually repeats but may differ in a detail not shown here. Equal values may be shown once. This continues a long series; more values of the same kind are listed elsewhere.

The assay concerns the target FFA1 (Homo sapiens, UniProt O14842). Nature of the assay: Ca2+ mobilisation (Fura2) in Flp-In T-REx 293 cells expressing Nluc-FFA1, FFA1-Nluc or untagged FFA1. The note with it: technical replicates. More on the design: expressed in transfected cells. It is filed as cell-based. How it is done: Nluc-FFA1, FFA1-Nluc or untagged FFA1 Flp-In T-REx 293 cells were plated at 50,000 cells per well in poly-D-lysine coated black clear bottom 96-well plates. Cells were then cultured for 24 h until reaching confluency before culture medium was replaced with medium containing 100 ng/mL of doxycycline to induce receptor expression. Cells were cultured for a further 24 h before the assay. On the day of the assay culture medium was removed and replaced with medium containing 3 μM Fura2-AM Ca^2+ dye. […] Fura2 fluorescent emission at 520 nm following excitation with each of 340 and 380 nm was measured in regular intervals both before and after adding test compounds for a total of 90 s per well. Calcium responses were determined by taking the peak 340/380 ratio after first subtracting the ratios obtained prior to addition of test compound.
(In general: Calcium flux is commonly read through the fluorescence of an indicator in the cells.)

[1] abbreviates: FFA1-Nluc cells, log[ligand] -5.5.
Setting [2] is: FFA1-Nluc cells, log[ligand] -6.
The mark [3] stands for this setting: FFA1-Nluc cells, log[ligand] -6.5.
[4] abbreviates: FFA1-Nluc cells, log[ligand] -8.
[5] abbreviates: Nluc-FFA1 cells, log[ligand] -5.5.
The mark [6] stands for this setting: Nluc-FFA1 cells, log[ligand] -6.
Where [7] appears, read: Nluc-FFA1 cells, log[ligand] -6.5.
[8] abbreviates: Nluc-FFA1 cells, log[ligand] -8.
The mark [9] stands for this setting: FFA1-Nluc cells, log[ligand] -5.
The mark [10] stands for this setting: FFA1-Nluc cells, log[ligand] -7.
Where [11] appears, read: FFA1-Nluc cells, log[ligand] -9.
[12] abbreviates: Nluc-FFA1 cells, log[ligand] -5.
Where [13] appears, read: Nluc-FFA1 cells, log[ligand] -7.
The mark [14] stands for this setting: Nluc-FFA1 cells, log[ligand] -9.
[15] abbreviates: untagged FFA1 cells, log[ligand] -5.
Where [16] appears, read: untagged FFA1 cells, log[ligand] -5.5.
[17] abbreviates: untagged FFA1 cells, log[ligand] -7.
[18] abbreviates: untagged FFA1 cells, log[ligand] -8.
[19] abbreviates: untagged FFA1 cells, log[ligand] -9.

`Cc1cc(OCCOCCNC(=O)CCCCCN2\C(=C/C=C/C=C/C3=[N+](C)c4ccc(S(=O)(=O)[O-])cc4C3(C)C)C(C)(C)c3ccccc32)ccc1-c1cccc(COc2ccc(CCC(=O)O)c(F)c2)c1` [TUG-2355]: the “Ca2+ Response as a % of T360 Response” value by setting is: under setting [1], -1.27% and 4.19% and 5.21% and -0.41% and 1.34% and 0.65%; under setting [2], 0.35% and 5.00% and 1.81% and -0.20% and 0.45% and 0.71%; under setting [3], 4.42% and 1.45% and 1.13% and -0.18% and -0.52% and -0.47%; under setting [4], -1.66% and 1.68% and -1.19% and 1.00% and 0.97% and 1.13%; under setting [5], 20.05% and -0.41% and 1.34% and 0.65% and 17.83% and 27.69%; under setting [6], 2.11% and -0.20% and 0.45% and 0.71% and 5.00% and 8.24%. Besides, the “Ca2+ Response as a % of T360 Response” value reads like this: under setting [7], 1.53% and -0.18% and -0.52% and -0.47% and 1.48% and 8.34%; under setting [8], 2.24% and 3.57%.

In the case of `Cc1cc(OCCCNC(=O)CCCN2\C(=C/C=C/C=C/C3=[N+](C)c4ccc(S(=O)(=O)[O-])cc4C3(C)C)C(C)(C)c3ccccc32)ccc1-c1cccc(COc2ccc(CCC(=O)O)c(F)c2)c1` [TUG-2591], the “Ca2+ Response as a % of T360 Response” value is 68.93% and 73.22% and 61.06% under setting [9]; 41.09% and 71.64% and 77.29% and 74.38% and 76.92% and 72.09% and 67.98% and 51.71% and 49.07% under setting [1]; 54.48% and 75.91% and 69.33% and 65.03% and 75.11% and 54.57% and 73.73% and 47.15% and 50.90% under setting [2]; 31.25% and 30.59% and 16.69% and 61.42% and 48.71% and 54.98% and 29.06% and 25.44% under setting [10]; 4.10% and 5.51% and 0.62% and 4.15% and 13.51% and 3.03% and 16.28% and 0.32% and 0.34% under setting [4]; 0.15% and 2.67% and 3.34% and 7.47% and 0.86% and 0.22% under setting [11]. In addition, the “Ca2+ Response as a % of T360 Response” value by setting is: under setting [12], 61.66% and 51.52% and 46.84% and 86.56% and 82.15% and 71.83% and 71.15% and 53.72%; under setting [5], 62.71% and 47.16% and 58.62% and 85.53% and 80.90% and 77.51% and 55.09% and 51.22%; under setting [6], 62.82% and 60.50% and 58.53% and 87.03% and 71.98% and 71.50% and 53.51% and 60.26% and 56.70%; under setting [13], -1.53%; under setting [8], 10.54% and 11.17% and 19.68% and 8.20% and 7.07% and 9.22% and 0.11% and 1.85% and 0.30%; under setting [14], 4.50% and 4.79% and 3.13% and 2.97% and -0.0331% and -1.56%. For the same molecule, the “Ca2+ Response as a % of T360 Response” value under setting [15] was 73.88% and 90.04% and 90.98% and 113.09% and 113.77% and 103.32% and 85.20% and 94.37% and 80.83% and 87.57% and 86.66% and 84.26%; the “Ca2+ Response as a % of T360 Response” value under setting [16] is 86.09% and 89.74% and 93.13% and 105.82% and 101.78% and 112.45% and 96.23% and 90.75% and 70.71% and 87.69% and 88.88% and 90.09%; the “Ca2+ Response as a % of T360 Response” value (untagged FFA1 cells, log[ligand] -6) is 82.21% and 72.63% and 79.20% and 93.93% and 100.36% and 102.52% and 72.86% and 50.43% and 69.57% and 81.03% and 87.24% and 67.44%; the “Ca2+ Response as a % of T360 Response” value under setting [17] is 28.84% and 44.39% and 38.80% and 72.82% and 63.53% and 66.36% and 20.34% and 8.02% and 16.18% and 82.87% and 87.61% and 100.19%; the “Ca2+ Response as a % of T360 Response” value under setting [18] was -1.09% and -0.47% and 1.31% and 1.77% and 2.07% and 3.91% and -1.52% and -0.97% and -4.65% and 46.49% and 40.31% and 41.09%; the “Ca2+ Response as a % of T360 Response” value under setting [19] was -4.65% and -2.58% and -2.50% and -2.74% and -1.49% and 1.85% and 0.63% and 6.88% and 1.23% and 10.08% and 2.21% and 0.38%.

As for `COc1ccc(C(=O)N(CC(C)(C)CNc2ccc([N+](=O)[O-])c3nonc23)c2cccc(C)n2)c(N2CCC(COc3cccc(C(CC(=O)O)C4CC4)c3)CC2)c1.O=C(O)C(F)(F)F` (stereo not shown) [TUG-2597], the “Ca2+ Response as a % of T360 Response” value is 93.567% and 85.081% and 86.451% (FFA1-Nluc cells, log[ligand] -4.5); 91.480% and 94.109% and 100.366% and 94.069% and 95.277% and 93.422% and 94.028% and 113.620% and 103.754% under setting [9]; 94.698% and 88.423% and 88.116% and 92.876% and 94.945% and 95.818% and 102.852% and 111.378% and 100.705% under setting [1]; 98.021% and 82.724% and 91.327% and 93.393% and 84.345% and 87.827% and 93.280% and 88.950% under setting [3]; 43.346% and 78.003% and 75.420% and 62.248% and 75.723% and 79.985% and 65.599% and 54.974% and 35.897% under setting [10]; 0.642% and 14.276% and 15.758% and 11.833% and 8.597% and 24.026% and 6.350% and -0.774% and -0.697% under setting [4]. In addition, the “Ca2+ Response as a % of T360 Response” value under setting [11] was 3.030% and 0.483% and 3.282% and 3.253% and 0.414% and 0.132%; the “Ca2+ Response as a % of T360 Response” value (Nluc-FFA1 cells, log[ligand] -4.5) was 79.418% and 81.527% and 72.333%; the “Ca2+ Response as a % of T360 Response” value under setting [12] is 91.486% and 90.455% and 91.717% and 99.857% and 112.150% and 100.497% and 102.216% and 108.535% and 91.507%; the “Ca2+ Response as a % of T360 Response” value under setting [5] was 84.219% and 81.439% and 84.281% and 103.200% and 100.553% and 101.368% and 104.058% and 93.139% and 91.624%; the “Ca2+ Response as a % of T360 Response” value under setting [7] was 76.903% and 88.958% and 103.314%; the “Ca2+ Response as a % of T360 Response” value under setting [13] is 51.126% and 50.272% and 29.879% and 25.578% and 37.373% and 40.555% and 53.706% and 58.556% and 52.425%. For the same molecule, the “Ca2+ Response as a % of T360 Response” value is 5.666% and 7.808% and 6.761% and 1.773% and 0.229% and 3.624% and 0.162% and -0.569% and -0.743% under setting [8]; 3.293% and 1.821% and 3.182% and -1.236% and -0.487% and -1.356% under setting [14]; 93.872% and 90.556% and 66.298% and 112.406% and 112.965% and 89.657% and 87.371% and 87.412% and 68.520% and 85.359% and 86.100% and 46.980% under setting [15]; 84.053% and 81.717% and 68.773% and 108.672% and 75.451% and 115.065% and 97.440% and 99.091% and 64.288% and 65.554% and 76.893% and 66.874% under setting [16]; 78.172% and 61.250% and 82.900% and 119.828% and 106.853% and 110.898% and 74.754% and 61.438% and 77.189% and 86.036% and 78.906% and 65.876% (untagged FFA1 cells, log[ligand] -6.5); 49.550% and 46.108% and 56.346% and 100.506% and 97.968% and 98.824% and 55.051% and 74.119% and 60.583% and 72.202% and 77.542% and 57.631% under setting [17]. Besides, the “Ca2+ Response as a % of T360 Response” value is -2.816% and -7.422% and -5.374% and 46.992% and 46.661% and 52.951% and 29.170% and 12.929% and 7.593% and 36.800% and 64.028% and 51.175% under setting [18]; -1.782% and -6.058% and -4.192% and 2.530% and -1.096% and -1.030% and 0.123% and -5.168% and 4.435% and 8.821% and 17.482% and 3.402% under setting [19].
